Out of some 580,000 compounds screened, about 6,100 (1.1%) were called active. About 15% were inconclusive and are not listed. The call rests on the fitted dose curve; in most records, active means well fitted inhibition curve with a large enough effect; inconclusive means small, poorly fitted or top-dose-only effect, or another doubt; inactive means no such curve, though single readings can be large or run the other way. The entries are a selection whose mix differs from that of the whole data set. Where no call is shown, the source filed none. More than one record can exist for a structure, and the calls need not agree.
biological target: Polyunsaturated fatty acid lipoxygenase ALOX12 (Homo sapiens) (UniProt P18054); assay: Primary qHTS assay for inhibitors of human arachidonate 12S-lipoxygenase (ALOX12): Round 2; settings: purified 12hLO, xylenol orange hydroperoxide absorbance; activity change, negative = inhibition: at 0.00344 µM (top of the series) unless noted
Description: Assay Provider: Theodore R. Holman Ph.D. University of California, Santa Cruz, California Human lipoxygenase 12hLO is a member of the closely related lipoxygenase family of enzymes which catalyze the site-specific oxidation of arachidonic acid to various hormone precursor molecules and as such is a candidate for drug development in a variety of disease areas, such as cancer and inflammation. Inhibition of 12hLO activity was screened by utilizing arachidonic acid as a substrate. The extent of hydroperoxide product formation was measured by a secondary chromogenic reaction in which xylenol orange (XO, Sigma-Aldrich, cat. number 39,818-7) reacts with the ferric ions produced from the reaction between the hydroperoxide and ferrous ions. The Fe (III)-XO complex is characterized with red-shifted absorbance at 560 nm. A purified preparation of human 12hLO was supplied by Dr. Holman laboratory, University of California, Santa Cruz.
PROTOCOL TABLE SEQUENCE No. (e.g., 1, 2, 3, etc.); […] (e.g., Cells, Incubation, Reagent, etc.); VALUE; DESCRIPTION 1; Enzyme; 3 uL; 150 nM 12hLO enzyme solution dispensed in 1536-well Greiner black, clear bottom plates. 2; Compound; 23 nL; compounds and controls were added. 3; Incubate; 15 min; room temperature. 4; Substrate; 1 uL; 40 uM arachidonic acid (final concentration). 5; Incubate; 30 min; room temperature. 6; Reagent; 4 uL; Fe-XO solution was added to each well. 7; Incubation; 30 min; room temperature 8; Detector; absorbance; Read 1 at 405 nm absorbance using ViewLux (Perkin-Elmer) CCD imager. 9; Detector; absorbance; Read 2 at 573 nm absorbance using ViewLux (Perkin-Elmer) CCD imager. NOTES (numbers refer to sequence above) 1; 150 nM 12hLO (final concentration) in buffer solution (25 mM Hepes, 0.01% Triton X-100, pH 7.0) was dispensed in columns 1, 2, 5-48. Column 1 is neutral (100% activity). Buffer only was dispensed in columns 3 and 4 as no enzyme negative controls. The plates were covered with metal lids with gas-exchange holes. 2; Compounds were pin transferred via a Kalypsys Pin Tool (Wako USA) in column 5-48. Control compound was transferred in column 2, titration of nordihydroguaiaretic acid (NDGA, Sigma-Aldrich, N5023) with top concentration of 20 mM in DMSO then 1:3 dilution in duplicate. Dilution factor of 23 nL into 4 uL final assay volume. 3; Covered assay plates were incubated for 15 min at room temperature. 4; Substrate was added to start the reaction; 40 uM arachidonic acid (Sigma-Aldrich, St. Louis, MO) was dispensed throughout the plate. 6; Chromogenic detection reagent solution (divalent iron/xylenol orange, Fe-XO) was added to each well: 200 uM xylenol orange, 300 uM ferrous ammonium sulfate prepared freshly in 50 mM sulfuric acid. 8, 9; Two absorbance readouts were obtained at 405 nm and at 573 nm using a ViewLux high-throughput CCD plate imager (Perkin-Elmer). The 573 to 405 (Read 2 / Read 1) absorbance ratio was used to compute reaction progress.
On the % scale 0 is the no-effect control and ±100 the full control effect; potency means the concentration at half of the fitted maximal effect.

By UniProt entry, the sequences of proteins in these tests, tags left out. Where a name states a change or a piece, a line headed by the entry shows the natural chain unless it says otherwise.
UniProt P18054: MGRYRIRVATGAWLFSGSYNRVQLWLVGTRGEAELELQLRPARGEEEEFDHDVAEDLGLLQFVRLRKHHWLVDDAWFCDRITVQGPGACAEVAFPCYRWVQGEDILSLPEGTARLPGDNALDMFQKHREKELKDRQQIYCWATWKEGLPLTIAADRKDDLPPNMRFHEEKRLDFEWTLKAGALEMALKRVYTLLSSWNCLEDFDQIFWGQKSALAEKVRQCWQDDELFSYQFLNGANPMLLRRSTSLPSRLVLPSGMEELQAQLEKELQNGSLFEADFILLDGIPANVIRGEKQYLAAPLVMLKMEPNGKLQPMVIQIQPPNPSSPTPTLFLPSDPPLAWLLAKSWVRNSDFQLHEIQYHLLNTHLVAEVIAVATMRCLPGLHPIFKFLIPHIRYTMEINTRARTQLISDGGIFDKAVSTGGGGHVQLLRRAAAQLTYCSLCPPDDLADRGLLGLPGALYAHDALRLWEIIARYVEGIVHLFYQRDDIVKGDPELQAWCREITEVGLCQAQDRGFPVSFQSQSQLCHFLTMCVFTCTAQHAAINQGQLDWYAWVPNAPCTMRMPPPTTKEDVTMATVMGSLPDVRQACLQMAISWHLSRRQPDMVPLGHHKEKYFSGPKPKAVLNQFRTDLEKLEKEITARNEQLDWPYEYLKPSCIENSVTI

Row | Structure (SMILES) | Potency | activity change, negative = inhibition
1 | Cc1ccc(-n2c(/C=C/c3ccco3)nc3ccccc3c2=O)cc1 | active: 15.8 µM | –
2 | Nc1ccc(Cl)cc1C(=O)c1ccccc1F | – | 27.2%
3 | COc1cc(CC(C)N)c(OC)cc1Br (stereo not drawn) | – | 5.45% [at 0.00599 µM]
4 | Clc1ccccc1N1CCNCC1 | – | -59.2%
5 | N#CC(C#N)=Cc1ccc(O)c(O)c1 | – | -9.39%
6 | COP(=O)(OC)OC=C(Cl)Cl | – | 40.4%
7 | CN1CCC(O)(c2ccc(F)cc2)C(C(=O)c2ccc(F)cc2)C1 (stereo not drawn) | – | 6.29%
8 | Oc1ccc2c3c1O[C@H]1[C@@H](O)C=C[C@H]4[C@@H](C2)NCC[C@@]341 | – | 14.9% [at 0.00599 µM]
9 | OCCOc1ccccc1 | – | 16%
10 | O=c1n(Cl)c(=O)n(Cl)c(=O)n1Cl | – | -7.72%
11 | CC(CC(C#N)(c1ccccc1)c1ccccc1)N(C)C (stereo not drawn) | – | -18.3% [at 0.00599 µM]
12 | CCOP(=S)(OCC)O/N=C(\C#N)c1ccccc1 | – | 4.44%
13 | CC(C)NCC(O)c1ccc([N+](=O)[O-])cc1 (stereo not drawn) | – | -30.1%
14 | CC(Cc1ccccc1)NCCn1cnc2c1c(=O)n(C)c(=O)n2C (stereo not drawn) | – | 23% [at 0.00599 µM]
15 | CCN(CC)C(=O)N[C@@H]1C=C2c3cccc4[nH]cc(c34)C[C@@H]2N(C)C1 | – | 1.76%
16 | CCC1(c2ccccc2)C(=O)N(COC)C(=O)N(COC)C1=O | – | 21.9%
17 | ClCCCN1CCN(c2cccc(Cl)c2)CC1 | – | 23.6%
18 | CC(=O)[C@H]1CC[C@H]2[C@@H]3CC[C@H]4C[C@](C)(O)CC[C@]4(C)[C@H]3CC[C@]12C | – | -26.6%
19 | CCOC(=O)C1(c2ccccc2)CCN(CCC(C#N)(c2ccccc2)c2ccccc2)CC1 | – | -25.3%
20 | NC1=NC(=O)C(c2ccccc2)O1 (stereo not drawn) | – | 25.2%
21 | O=C1OC(c2ccc(O)c(S(=O)(=O)O)c2)(c2ccc(O)c(S(=O)(=O)O)c2)c2c(Br)c(Br)c(Br)c(Br)c21 | – | 45.6%
22 | CC(C)=C[C@@H]1[C@@H](C(=O)OCc2coc(Cc3ccccc3)c2)C1(C)C | – | -31.5%
23 | CCCN(CCC)CCc1c[nH]c2ccccc12 | – | -13.9% [at 0.00599 µM]
24 | CC(NC(C)(C)C)C(=O)c1cccc(Cl)c1 (stereo not drawn) | – | 45.3%
25 | NCc1cccnc1 | – | -33.6%
26 | CN(C)[C@@H]1C(=O)C(C(N)=O)=C(O)[C@@]2(O)C(=O)C3=C(O)c4c(O)cccc4[C@@](C)(O)[C@H]3C[C@@H]12 | – | 12%
27 | CN1C(=O)/C(=C/c2ccc(Cl)s2)C(=O)NC1=S | active: 4.47 µM | –

From compound 5 to 6, as listed above:
Row | Structure (SMILES) | Potency | activity change, negative = inhibition
5 | N#CC(C#N)=Cc1ccc(O)c(O)c1 | – | -9.39%
6 | COP(=O)(OC)OC=C(Cl)Cl | – | 40.4%

More entries:

Row | Structure (SMILES) | Potency | activity change, negative = inhibition
28 | Cn1c(CCCC(=O)O)nc2cc(N(CCCl)CCCl)ccc21 | – | 24.1%
29 | CC(C)COc1ccc(Cc2c(O)[nH]c(=S)[nH]c2=O)cc1 | active: 8.91 µM | –
30 | CCN(CC)CCc1c[nH]c2ccccc12 | – | 19.4% [at 0.0105 µM]
31 | CC(=O)OC1(c2ccccc2)CCN(CCc2ccccc2)CC1 | – | -11.9% [at 0.00599 µM]
32 | CN1CCN(C(=O)O[C@H]2c3nccnc3C(=O)N2c2ccc(Cl)cn2)CC1 | – | -11.3%
33 | Oc1ccc2[nH]cc(CCCCN3CC=C(c4ccccc4)CC3)c2c1 | – | 19.7%
34 | O=Cc1c(C(=O)O)n(Cc2ccc(Cl)cc2)c2ccccc12 | active: 11.2 µM | –
35 | C[C@H]1O[C@@H](O[C@H]2[C@@H](O)C[C@H](O[C@H]3[C@@H](O)C[C@H](O[C@H]4CC[C@@]5(C)[C@H](CC[C@@H]6[C@@H]5CC[C@]5(C)[C@@H](C7=CC(=O)OC7)CC[C@]65O)C4)O[C@@H]3C)O[C@@H]2C)C[C@H](O)[C@@H]1O | – | -12.9%
36 | CCOC(C(=O)OCCN(C)C)(c1ccccc1)c1ccccc1 | – | -16.7%
37 | O=c1[nH]oc2c1CCNC2 | – | 7.4%
38 | O=C(O)c1nn(Cc2ccc(Cl)cc2Cl)c2ccccc12 | – | 11%
39 | C[C@@H]1C[C@@H]([C@H](O)CC2CC(=O)NC(=O)C2)C(=O)[C@@H](C)C1 | – | 26.9%
40 | C[n+]1ccc(-c2ccncc2)cc1 | active: 12.6 µM | –
41 | C[C@H](N)C(=O)c1ccccc1 | – | -15.6% [at 0.0105 µM]
42 | CC[C@@H](CO)NC(=O)[C@@H]1C=C2c3cccc4[nH]cc(c34)C[C@H]2N(C)C1 | – | -6.39%
43 | CCC1(CCC(C)C)C(=O)NC(=O)NC1=O | – | 15.6% [at 0.00599 µM]
44 | Cc1ncsc1CCCl | – | -28.1%
45 | Cc1ccc(CNCCc2c[nH]c3ccccc23)c(C)c1 | active: 12.6 µM | –
46 | O=C(CCCN1CCC2(CC1)C(=O)NCN2c1ccccc1)c1ccc(F)cc1 | – | 22.5%
47 | O=[N+]([O-])O[C@H]1CO[C@H]2[C@@H]1OC[C@H]2O[N+](=O)[O-] | – | 47.5%
48 | C=C1CC[C@@]2(O)[C@H]3Cc4ccc(O)c5c4[C@@]2(CCN3CC2CC2)[C@H]1O5 | – | 10.2%
49 | C[C@]12Cc3nonc3C[C@@H]1CC[C@@H]1[C@@H]2CC[C@@]2(C)[C@H]1CC[C@]2(C)O | – | 4.44%
50 | CCC(=O)C(CC(C)N(C)C)(c1ccccc1)c1ccccc1 (stereo not drawn) | – | 16% [at 0.00599 µM]
51 | CN(C)c1ccc2c(c1)N=C(c1ccco1)OP2(=S)N1CCOCC1 (stereo not drawn) | active: 20 µM | –
52 | CN1CCC(N(Cc2ccccc2)c2ccccc2)CC1 | – | 20.6%
53 | CCCCCCCCCC(=O)O[C@H]1CC[C@H]2[C@@H]3CCC4=CC(=O)CC[C@@H]4[C@H]3CC[C@]12C | – | -4.52%

Source: PubChem BioAssay AID1671190 (National Center for Advancing Translational Sciences (NCATS), 2021)
